Source: publication PMC12249550
Results are given in words; binding and its absence hold for the method and conditions named. Some entries that bind do so weakly or less than the wild type.

Columns and labels:
[1] = target: T1, RpoE (sigma E), extracytoplasmic function sigma factor (Escherichia coli) (UniProt P0AGB6); assay: two-hybrid; bacterial adenylate cyclase two-hybrid (BACTH) in E. coli BTH101; T18-NsrR + T25-RpoE and T18-RpoE + T25-NsrR; quantitative β-galactosidase assay on parallel cultures, compared with vector-only controls
T1 sequence: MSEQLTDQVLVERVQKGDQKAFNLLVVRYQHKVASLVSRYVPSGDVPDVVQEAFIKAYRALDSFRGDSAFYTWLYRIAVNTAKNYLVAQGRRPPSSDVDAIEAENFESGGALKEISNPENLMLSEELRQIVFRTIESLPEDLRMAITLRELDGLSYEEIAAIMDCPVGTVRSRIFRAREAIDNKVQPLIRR

[2] = target: T1, RpoE (sigma E), extracytoplasmic function sigma factor (Escherichia coli); assay: two-hybrid; bacterial adenylate cyclase two-hybrid (BACTH) in E. coli BTH101; T18 and T25 fusions in both orientations; cultures with 100 uM IPTG spotted on MacConkey maltose agar, 30 °C, 24 to 48 h; colony colour

binding [1]: binds | binding [2]: binds
B1: NsrR, nitric-oxide-sensing transcriptional repressor (protein, UniProt P0AF63 1-141)
chain: MQLTSFTDYGLRALIYMASLPEGRMTSISEVTDVYGVSRNHMVKIINQLSRAGYVTAVRGKNGGIRLGKPASAIRIGDVVRELEPLSLVNCSSEFCHITPACRLKQALSKAVQSFLTELDNYTLADLVEENQPLYKLLLVE
